# Results as given in PubChem BioAssay (EPA / NIEHS).
# “And” between values parts separate entries of the source, which are not always exact repeats. Equal values may be shown once. This list was built around the results that the source calls inconclusive (neither active nor inactive); the mix of calls is not that of the screen. Where the call is inconclusive, the potency comes from a doubtful curve fit. Some structures have more than one record in an assay (separate samples or runs), and their calls can disagree. The source made the active and inactive calls. How the source made its calls: active means hit-call score of the fitted dose curve at least 0.9, where 1 is the maximum; inconclusive means response in the unintended direction; inactive means score below 0.9.
# Assays:
# [1] = Tanguay_ZF_120hpf_OTIC_legacy: (Legacy) Oregon State University Tanguay Lab 120 Hour Post-fertilization zebrafish Assay for Otic Vesicle Malformation (AID 2283639)
# Procedure, shortened: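 Brightfield scoring at 120 hpf, binary present/absent; DMSO negative control, 5uM trimethyltin chloride positive control. Static exposure at 28C, final DMSO 0.64% (vol/vol). Dead embryos not scored for malformation.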
# [2] = Tanguay_ZF_120hpf_BRAI_legacy: (Legacy) Oregon State University Tanguay Lab 120 Hour Post-fertilization zebrafish Assay for Brain Malformation (AID 2283641)
# Procedure, shortened: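 Brain malformation in Tropical 5D zebrafish was recorded as a binary endpoint after static compound exposure from early development to 120 hpf at 28C. Activity was analysed against DMSO as negative control.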
# [3] = Tanguay_ZF_120hpf_SOMI_legacy: (Legacy) Oregon State University Tanguay Lab 120 Hour Post-fertilization zebrafish Assay for Somite Malformation (AID 2283647)
# Procedure, shortened: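 5D WT zebrafish; chorion removed 4 hpf; 1 embryo/well from 6 hpf; static exposure to 120 hpf, 28C, 0.64% DMSO final. Endpoint: somite malformation, binary, brightfield. Mortality excluded.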
# [4] = Tanguay_ZF_120hpf_PFIN_legacy: (Legacy) Oregon State University Tanguay Lab 120 Hour Post-fertilization zebrafish Assay for Pectoral Fin Malformation (AID 2283648);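 further: each larva judged yes or no for fin defect by brightfield with dead larvae skipped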
# Procedure, shortened: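 Pectoral fin malformation was recorded as a binary endpoint at 120 hpf in wild-type Tropical 5D larvae, which had been dechorionated and exposed statically from 6 hpf at 28C in 0.64% DMSO. Dead embryos were excluded.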
# [5] = Tanguay_ZF_120hpf_CFIN_legacy: (Legacy) Oregon State University Tanguay Lab 120 Hour Post-fertilization zebrafish Assay for Caudal Fin Malformation (AID 2283649)
# Procedure, shortened: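 Embryos were collected from Tropical 5D wild-type adults and dechorionated at 4 hpf. At 6 hpf each was exposed, one per well, at 0.64% DMSO and 28C. At 120 hpf fin morphology was scored; dead embryos were excluded.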
# [6] = Tanguay_ZF_120hpf_PIG_legacy: (Legacy) Oregon State University Tanguay Lab 120 Hour Post-fertilization zebrafish Assay for Pigmentation Malformation (AID 2283650)
# Procedure, shortened: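 Pigment malformation recorded as a binary call at 120 hpf in zebrafish (Tropical 5D) exposed singly from 6 hpf after pronase dechorionation. Static, sealed, 28C exposure, 0.64% DMSO; mortality excludes scoring; positive-direction fit against DMSO.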
# [7] = Tanguay_ZF_120hpf_SWIM_legacy: (Legacy) Oregon State University Tanguay Lab 120 Hour Post-fertilization zebrafish Assay for Swim Bladder Malformation (AID 2283654);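 further: swim bladder malformation in each larva scored yes or no under brightfield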
# Procedure, shortened: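 Scoring is binary for swim bladder defects at 120 hpf, by brightfield inspection of zebrafish larvae. Embryos were exposed singly from 6 hpf after pronase dechorionation, at 28C with 0.64% DMSO; mortality excluded scoring.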
# [8] = Tanguay_ZF_120hpf_CIRC_legacy: (Legacy) Oregon State University Tanguay Lab 120 Hour Post-fertilization zebrafish Assay for Circulatory Malformation (AID 2283651)
# Procedure, shortened: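 Static exposure, 6–120 hpf, 28C, sealed and dark; one dechorionated 5D embryo/well; DMSO 0.64% v/v final. Binary circulation endpoint by brightfield; dead embryos not scored.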
# [9] = Tanguay_ZF_120hpf_PE_legacy: (Legacy) Oregon State University Tanguay Lab 120 Hour Post-fertilization zebrafish Assay for Pericardial Edema (AID 2283640);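 on AC50: potency for increased incidence of pericardial edema versus DMSO baseline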
# Procedure, shortened: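 Read-out is the presence or absence of pericardial edema at 120 hpf under brightfield, with gain of signal fitted against DMSO controls. Larvae (5D wild-type) were statically exposed at 28C with 0.64% final DMSO.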
# [10] = Tanguay_ZF_120hpf_TRUN_legacy: (Legacy) Oregon State University Tanguay Lab 120 Hour Post-fertilization zebrafish Assay for Truncated Body (AID 2283655)
# Procedure, shortened: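 5D wild-type larvae; pronase dechorionation; static exposure 6→120 hpf, 28C; DMSO 0.64% final; 5uM trimethyltin chloride positive control. Readout: presence/absence of truncated body, analyzed relative to DMSO.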
smiles,measurement,setting,value
O=C(O)c1ccccc1C(c1ccc(O)cc1)c1ccc(O)cc1,outcome,[1],inactive
same,AC50,[2],inconclusive: 0.792 µM
same,outcome,[3],inactive
Cc1ccc(-c2cc(C(F)(F)F)nn2-c2ccc(S(N)(=O)=O)cc2)cc1,AC50,[1],inconclusive: 4.2 µM
same,AC50,[3],inconclusive: 33.9 µM
O=P(OC(CCl)CCl)(OC(CCl)CCl)OC(CCl)CCl,AC50,[1],active: 34.7 µM
same,AC50,[3],active: 9.13 µM
same,AC50,[4],active: 40.3 µM
same,AC50,[5],active: 30 µM
same,AC50,[6],active: 33.9 µM
same,AC50,[7],active: 25.9 µM
CCCOC(=O)c1ccc(O)cc1,AC50,[1],active: 40 µM
same,AC50,[2],active: 41.4 µM
same,AC50,[3],active: 33.3 µM
same,AC50,[4],active: 45.8 µM
same,AC50,[5],active: 75.8 µM
same,AC50,[6],active: 49.1 µM
same,AC50,[8],active: 40.1 µM
same,AC50,[7],active: 10.6 µM
C[C@]12CC[C@@H]3c4ccc(O)cc4CC[C@H]3[C@@H]1CC[C@@H]2O,AC50,[1],inconclusive: 55.2 µM
same,AC50,[4],inconclusive: 49.2 µM
same,outcome,[5],inactive
CC#C[C@]1(O)CC[C@H]2[C@@H]3CCC4=CC(=O)CCC4=C3[C@@H](c3ccc(N(C)C)cc3)C[C@@]21C,AC50,[1],inconclusive: 6.22 µM
same,AC50,[9],active: 73.3 µM
same,AC50,[2],inconclusive: 18.4 µM
same,AC50,[4],inconclusive: 179 µM
same,AC50,[10],inconclusive: 154 µM
OCCO,AC50,[1],inconclusive: 27.6 µM
same,outcome,[2],inactive
same,AC50,[3],inconclusive: 10.8 µM
CN(C)c1ccc(C(=C2C=CC(=[N+](C)C)C=C2)c2ccc(N(C)C)cc2)cc1,AC50,[1],inconclusive: 20.2 µM
same,AC50,[9],inconclusive: 0.131 µM
same,AC50,[2],inconclusive: 0.748 µM
same,AC50,[3],inconclusive: 3.45 µM
same,outcome,[4],inactive
c1ccc(C(O[C@@H]2CCCN(CCc3ccc4c(c3)OCO4)C2)c2ccccc2)cc1,AC50,[1],active: 45.8 µM
same,AC50,[2],active: 42 µM
same,AC50,[4],active: 33.4 µM
same,AC50,[5],active: 37.2 µM
same,AC50,[6],active: 42.4 µM
same,outcome,[7],inactive
same,AC50,[10],active: 38.2 µM
CCCCCCCCCCCCCCOS(=O)(=O)O,AC50,[1],active: 9.8 µM
same,AC50,[4],active: 16.8 µM
same,AC50,[5],active: 46.9 µM
same,AC50,[6],active: 9.35 µM
same,AC50,[10],active: 31.3 µM
CC(C)(c1ccc(O)cc1)c1ccc(O)cc1,AC50,[1],active: 40.5 µM and active: 37.7 µM
same,AC50,[2],active: 41.6 µM and active: 39.4 µM
same,AC50,[3],active: 44.3 µM and active: 36.4 µM
same,outcome,[3],inactive
same,AC50,[5],active: 35.2 µM
same,AC50,[6],inconclusive: 170 µM and active: 42 µM and active: 36.8 µM
same,AC50,[8],inconclusive: 151 µM and active: 36.7 µM
same,outcome,[8],inactive
same,AC50,[7],active: 37.5 µM
O=C(O)CN(CC(=O)O)CC(=O)O,AC50,[1],inconclusive: 184 µM
same,AC50,[5],inconclusive: 132 µM
CSC(=O)c1cccc2nnsc12,AC50,[1],inconclusive: 68.8 µM
CCOC(=O)c1ccc(O)cc1,AC50,[1],inconclusive: 32.5 µM
same,AC50,[3],inconclusive: 180 µM
CC(C)(C)c1cc(C(C)(C)C)c(O)c(C(C)(C)C)c1,AC50,[1],inconclusive: 1.47 µM
same,AC50,[3],inconclusive: 201 µM
CC[C@H](NC(=O)c1cc(F)ccc1NS(=O)(=O)c1cccc2cccnc12)c1ccccc1,outcome,[1],inactive
same,AC50,[3],inconclusive: 5.07 µM
same,outcome,[4],inactive
same,AC50,[6],inconclusive: 172 µM
O=C(OCCCCCCOC(=O)c1ccccc1)c1ccccc1,AC50,[1],inconclusive: 170 µM
same,AC50,[2],inconclusive: 4.36 µM
same,AC50,[4],inconclusive: 202 µM
same,AC50,[6],inconclusive: 121 µM
same,AC50,[7],inconclusive: 3.89 µM
COC(=O)c1ccc(C(=O)OC)cc1,outcome,[1],inactive
same,AC50,[9],active: 28.9 µM
same,AC50,[2],active: 44.4 µM
same,AC50,[6],inconclusive: 202 µM
same,AC50,[7],active: 12.3 µM
Nc1nc(=S)c2[nH]cnc2[nH]1,AC50,[1],inconclusive: 40.3 µM
same,AC50,[2],inconclusive: 3.04 µM
same,AC50,[3],inconclusive: 172 µM
same,AC50,[8],inconclusive: 176 µM
CCCCc1oc2ccccc2c1C(=O)c1cc(I)c(OCCN(CC)CC)c(I)c1,AC50,[1],inconclusive: 138 µM
same,outcome,[9],inactive
same,AC50,[8],inconclusive: 47.6 µM
same,AC50,[7],inconclusive: 77.1 µM
NCC1(Cc2noc(=O)[nH]2)CCCCC1,AC50,[1],inconclusive: 0.807 µM
same,AC50,[3],inconclusive: 32.2 µM
CCCCc1ccc2c(n1)[C@@H](c1ccc(OC)cc1C[C@H](C)C(=O)O)[C@H](C(=O)O)[C@H]2c1ccc2c(c1)OCO2,AC50,[1],inconclusive: 90.7 µM
same,outcome,[5],inactive
same,outcome,[6],inactive
C#C[C@]1(O)CC[C@H]2[C@@H]3CCC4=CC(=O)CC[C@@H]4[C@H]3CC[C@@]21CC,outcome,[1],inactive
same,AC50,[9],inconclusive: 3.08 µM
same,AC50,[4],inconclusive: 4.46 µM
same,AC50,[8],inconclusive: 1.8 µM
same,AC50,[10],inconclusive: 1.87 µM

# Fetched one by one from the entries so far:
smiles,measurement,setting,value
O=C(O)CN(CC(=O)O)CC(=O)O,AC50,[5],inconclusive: 132 µM
CC(C)(c1ccc(O)cc1)c1ccc(O)cc1,AC50,[7],active: 37.5 µM
CC(C)(C)c1cc(C(C)(C)C)c(O)c(C(C)(C)C)c1,AC50,[3],inconclusive: 201 µM
O=C(OCCCCCCOC(=O)c1ccccc1)c1ccccc1,AC50,[2],inconclusive: 4.36 µM
